# Source: patent US12076331B2, “Inositol derivatives for use in pathological crystallization” (ETH Zurich, priority 2015, dated 2024)
# System: RPTEC/TERT 1 human proximal tubule cells
# Experiment: RNA sequencing of Ca/P treated RPTEC
# Type: cell-based
# Conditions: 50 μM, 24 h, fold change ≥ 1.5 and p≤ 0.05
# From the text: A) Heatmap and hierarchical clustering of relative gene expression levels determined by RNA sequencing. […] Weighted set coverage of gene ontology terms and their respective enrichment score for differentially expressed genes in the Ca/P vs. medium control group is plotted (all FDR≤0.05). D) Normalized count of gene transcripts (FPKM—fragments per kilobase of exon model per million reads mapped) involved in inflammatory responses, ECM composition, cell proliferation and tissue homeostasis of the different treatment groups is plotted (mean+SD, N=3).
# Cells were cultured as described in the imaging assay and treated with a medium control (ProxUp basal medium containing 1/1 mM Ca/P), 5/7 mM Ca/P, 5/7 mM Ca/P in medium containing 50 µM (OEG2)2-IP4 or 50 µM (OEG2)2-IP4 in medium for 24 h. Total RNA was extracted using the RNeasy kit (Quiagen) according to the manufacturer's instructions. Three wells per sample group were prepared and total RNA extracted of those 3 wells pooled. mRNA was purified and RNAseq library was prepared using the TrueSeq RNA kit (Illumina). Sequencing was performed on a Novaseq 6000 (Illumina). Reads were aligned to the human reference genome GRCh38.p10 using the STAR tool (https://github.com/alexdobin/STAR) and transcripts quantified using the Kallisto program (42). Ensembl release 91 was used for the gene model definitions. […] The heatmap was plotted using R software. Overrepresentation analysis was performed on Webgestalt.org (v2019) (43), using differentially expressed genes with p≤0.01, log 2fold change ≥ 0.5. Differential expressed genes were compared to the gene ontology—biological process functional database and as a reference set the human genome—protein coding was used. The weighted set cover of the top 30 enriched categories was plotted. For comparison of expression levels of the selected genes, the fragments per kilobase of exon model per million reads mapped (FPKM) were used. Three independent experiments were performed. RNA sequencing raw data is available on the EMBL Nucleotide Sequence Database (ENA) under the accession number PRJEB38397.
smiles,measurement,value
COCCOCCO[C@@H]1C(OP(=O)(O)O)[C@H](OCCOCCOC)[C@@H](OP(=O)(O)O)C(OP(=O)(O)O)[C@H]1OP(=O)(O)O (stereo partly shown) [(OEG2)2-IP4],"differentially expressed genes, (OEG2)2-IP4 only vs. positive ctrl",2935
same,"differentially expressed genes, Ca/P+(OEG2)2-IP4 vs. (OEG2)2-IP4 only",77
same,"differentially expressed genes, Ca/P+(OEG2)2-IP4 vs. negative ctrl",76
same,"differentially expressed genes, Ca/P+(OEG2)2-IP4 vs. positive ctrl",2437
